{"source": "PubChem BioAssay AID1224830 (NIAID, 2016)", "test": "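Host factors that control LPS-induced TNF expression in human macrophages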 (primary screen)", "system": "human THP-1 monocytic leukaemia cells, TNF dual-luciferase reporter clone, PMA-differentiated to macrophage-like cells", "knock-down reagent": "siRNA pool against human genes, 50 nM", "duration": "LPS for 4 h, given about 3 days after siRNA transfection", "treatment": "bacterial LPS (TLR4 ligand), 10 ng/ml", "measured": "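TNF firefly reporter luminescence divided by renilla, normalised to the plate median, then turned into a robust z-score for each replicate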", "reading the numbers": "TNF reporter robust z-score: higher = stronger TNF reporter response to LPS", "active means": "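a well is active when its z-score exceeds 2.8 or falls below -1.5; control wells carry no call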", "note": "The whole screen tested about 18,000 reagents; below is an unselected part. About 2,900 of all reagents (16%) count as active. 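Calls are made per well; low scores hint the gene aids the LPS response, high scores that it dampens it.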 Repeated entries: four replicate wells of each siRNA pool."}
{"gene knocked down": "SPRY3 (sprouty RTK signaling antagonist 3)", "TNF reporter robust z-score": -0.34, "activity call": "inactive"}
{"gene knocked down": "SPRY3 (sprouty RTK signaling antagonist 3)", "TNF reporter robust z-score": 1.41, "activity call": "inactive"}
{"gene knocked down": "SPRY3 (sprouty RTK signaling antagonist 3)", "TNF reporter robust z-score": 0.28, "activity call": "inactive"}
{"gene knocked down": "SPRY3 (sprouty RTK signaling antagonist 3)", "TNF reporter robust z-score": 0.19, "activity call": "inactive"}
{"gene knocked down": "TFCP2 (transcription factor CP2)", "TNF reporter robust z-score": 1.06, "activity call": "inactive"}
{"gene knocked down": "TFCP2 (transcription factor CP2)", "TNF reporter robust z-score": 0.77, "activity call": "inactive"}
{"gene knocked down": "TFCP2 (transcription factor CP2)", "TNF reporter robust z-score": -0.35, "activity call": "inactive"}
{"gene knocked down": "TFCP2 (transcription factor CP2)", "TNF reporter robust z-score": 0.17, "activity call": "inactive"}
{"gene knocked down": "TMEM98 (transmembrane protein 98)", "TNF reporter robust z-score": 1.85, "activity call": "inactive"}
{"gene knocked down": "TMEM98 (transmembrane protein 98)", "TNF reporter robust z-score": 0.8, "activity call": "inactive"}
{"gene knocked down": "TMEM98 (transmembrane protein 98)", "TNF reporter robust z-score": -0.27, "activity call": "inactive"}
{"gene knocked down": "TMEM98 (transmembrane protein 98)", "TNF reporter robust z-score": 2.45, "activity call": "inactive"}
{"gene knocked down": "ABTB2 (ankyrin repeat and BTB domain containing 2)", "TNF reporter robust z-score": -0.67, "activity call": "inactive"}
{"gene knocked down": "ABTB2 (ankyrin repeat and BTB domain containing 2)", "TNF reporter robust z-score": -0.66, "activity call": "inactive"}
{"gene knocked down": "ABTB2 (ankyrin repeat and BTB domain containing 2)", "TNF reporter robust z-score": -0.32, "activity call": "inactive"}
{"gene knocked down": "ABTB2 (ankyrin repeat and BTB domain containing 2)", "TNF reporter robust z-score": -0.17, "activity call": "inactive"}
{"gene knocked down": "OPTN (optineurin)", "TNF reporter robust z-score": -1.07, "activity call": "inactive"}
{"gene knocked down": "OPTN (optineurin)", "TNF reporter robust z-score": -0.96, "activity call": "inactive"}
{"gene knocked down": "OPTN (optineurin)", "TNF reporter robust z-score": -1.18, "activity call": "inactive"}
{"gene knocked down": "OPTN (optineurin)", "TNF reporter robust z-score": -1.25, "activity call": "inactive"}
{"gene knocked down": "HGD (homogentisate 1,2-dioxygenase)", "TNF reporter robust z-score": -0.61, "activity call": "inactive"}
{"gene knocked down": "HGD (homogentisate 1,2-dioxygenase)", "TNF reporter robust z-score": 0.27, "activity call": "inactive"}
{"gene knocked down": "HGD (homogentisate 1,2-dioxygenase)", "TNF reporter robust z-score": 0.35, "activity call": "inactive"}
{"gene knocked down": "HGD (homogentisate 1,2-dioxygenase)", "TNF reporter robust z-score": -0.84, "activity call": "inactive"}
{"gene knocked down": "KNG1 (kininogen 1)", "TNF reporter robust z-score": -0.96, "activity call": "inactive"}
{"gene knocked down": "KNG1 (kininogen 1)", "TNF reporter robust z-score": 2.2, "activity call": "inactive"}
{"gene knocked down": "KNG1 (kininogen 1)", "TNF reporter robust z-score": 2.63, "activity call": "inactive"}
{"gene knocked down": "KNG1 (kininogen 1)", "TNF reporter robust z-score": 1.96, "activity call": "inactive"}
{"gene knocked down": "EHF (ETS homologous factor)", "TNF reporter robust z-score": 0.67, "activity call": "inactive"}
{"gene knocked down": "EHF (ETS homologous factor)", "TNF reporter robust z-score": 0.79, "activity call": "inactive"}
{"gene knocked down": "EHF (ETS homologous factor)", "TNF reporter robust z-score": 0.63, "activity call": "inactive"}
{"gene knocked down": "DUX4L1 (double homeobox 4 like 1 (pseudogene))", "TNF reporter robust z-score": 0.91, "activity call": "inactive"}
{"gene knocked down": "DUX4L1 (double homeobox 4 like 1 (pseudogene))", "TNF reporter robust z-score": 0.65, "activity call": "inactive"}
{"gene knocked down": "DUX4L1 (double homeobox 4 like 1 (pseudogene))", "TNF reporter robust z-score": -0.26, "activity call": "inactive"}
{"gene knocked down": "DUX4L1 (double homeobox 4 like 1 (pseudogene))", "TNF reporter robust z-score": -0.44, "activity call": "inactive"}

3 entries from above, ordered by “TNF reporter robust z-score”, lowest first:
{"gene knocked down": "ABTB2 (ankyrin repeat and BTB domain containing 2)", "TNF reporter robust z-score": -0.66, "activity call": "inactive"}
{"gene knocked down": "ABTB2 (ankyrin repeat and BTB domain containing 2)", "TNF reporter robust z-score": -0.32, "activity call": "inactive"}
{"gene knocked down": "ABTB2 (ankyrin repeat and BTB domain containing 2)", "TNF reporter robust z-score": -0.17, "activity call": "inactive"}
